Values joined by “and” are separate entries in the source; they are usually repeats but may differ in a detail not shown here. Equal entries are not always repeated. Some of the results follow. Single values are uncertain, as repeats are few or missing.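 The assay uses human stem cell-derived hepatocyte-like cells whose DGUOK gene was disrupted by CRISPR, modeling liver mtDNA depletion syndrome. ATP signals were scored within each plate, and any drug with a score of at least 3 was called a primary hit.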 Residues, ends and D or L forms follow the SMILES beside them.
test system: DGUOK Δ14/Δ5 iPSC-derived hepatocyte-like cells (SV20); assay: ATP level (CellTiter-Glo luminescence) Z score relative to plate distribution, under 2-DG glycolysis block; higher = more cellular ATP (rescue of mitochondrial ATP production); settings: 5 µM; treatment time: day 15 to day 20 of differentiation (5 days); 2-deoxy-D-glucose: 20 mM for 24 h before assay

Structure (SMILES) | ATP level
Nc1ccc(C(=O)O)cc1 | inactive: 0.165
CO[C@H]1C[C@H](O[C@@H]2/C(C)=C\C[C@@H]3C[C@@H](C[C@]4(C=C[C@H](C)[C@@H](C(C)C)O4)O3)OC(=O)[C@@H]3C=C(C)[C@@H](O)[C@H]4OC/C(=C/C=C\[C@@H]2C)[C@]43O)O[C@@H](C)[C@H]1O[C@H]1C[C@@H](OC)[C@H](NC(C)=O)[C@H](C)O1 | inactive: -9.6
NCCCC(O)(P(=O)(O)O)P(=O)(O)O | inactive: -1.51
Nc1ccc(S(=O)(=O)Nc2cnc3ccccc3n2)cc1 | inactive: -14
O=C(O)CN(CC(=O)O)Cc1cc2c(cc1O)Oc1cc(O)c(CN(CC(=O)O)CC(=O)O)cc1C21OC(=O)c2ccccc21 | inactive: -1.03
[O-][n+]1cccc(CO)c1 | inactive: 0.859
COc1ccc(C[C@H](N)C(=O)N[C@H]2[C@@H](O)[C@H](n3cnc4c(N(C)C)ncnc43)O[C@@H]2CO)cc1 | inactive: -0.197
Cc1ccnc(NS(=O)(=O)c2ccc(N)cc2)n1 | inactive: 0.791
O=c1ccn([C@@H]2O[C@H](CO)[C@@H](O)[C@H]2O)c(=O)[nH]1 | inactive: -0.142
C[C@H](Cn1cnc2c(N)ncnc21)OCP(=O)(O)O | inactive: -5.74
CCCCNc1cc(C(=O)O)cc(S(N)(=O)=O)c1Oc1ccccc1 | inactive: 1.99
O=c1c(O)c(-c2ccc(O)cc2)oc2ccccc12 | inactive: 0.617
CC(=O)Oc1cc2c(c(C)c1OC(C)=O)CC=C1[C@@]2(C)CC[C@@]2(C)C3C[C@](C)(C(=O)O)CC[C@]3(C)CC[C@]12C (some centres not stated) | inactive: -11.5
CC(=O)Oc1ccccc1C(=O)Oc1ccccc1C(=O)O | inactive: -0.648
COc1cc2c(cc1-c1coc3c4c(ccc3c1=O)OC(C)(C)C=C4)OCO2 | inactive: 1.27
CCOC(=O)c1c(C)cc(O)c(C=O)c1O | inactive: -1.58
CCN(CC)CCOC(=O)c1ccc(N)cc1 | inactive: -1.23
CC[C@H](C)C(=O)O[C@H]1C[C@@H](C)C=C2C=C[C@H](C)[C@H](CC[C@@H]3C[C@@H](O)CC(=O)O3)[C@H]21 | inactive: 2.66
Cc1c(C)c2c(c(C)c1O)CCC(C)(C(=O)O)O2 (configuration not stated) | inactive: -0.853
COc1ccc(-c2coc3c4c(c(CC=C(C)C)c(O)c3c2=O)OC(C)(C)C=C4)cc1 | inactive: 2.86
CC(C)C[C@H](N)C(=O)N[C@@H](C)C(=O)O (H-Leu-Ala-OH) | inactive: 1.49

Structure (SMILES) | ATP level
Oc1cccc2[nH]ccc12 | active: 3.13
O=C1CCC[C@@H]2[C@H]3CCC[N+]4([O-])CCC[C@@H](CN12)[C@@H]34 (some centres not stated) | inactive: -1.46
CC(=O)N[C@@H](CS)C(=O)O | inactive: 0.752
CC(=O)O[C@H]1C[C@@]2(C)[C@@H](C[C@@H](O)[C@H]3[C@@]4(C)CC[C@@H](O)[C@@H](C)[C@@H]4CC[C@@]32C)/C1=C(\CCC=C(C)C)C(=O)O | inactive: 2.27
COc1cccc(-c2cc(=O)c3cc(OC)ccc3o2)c1 | inactive: 1.41
COc1cc(C2Oc3cc([C@H]4Oc5cc(O)cc(O)c5C(=O)[C@@H]4O)ccc3OC2CO)ccc1O (some centres not stated) | inactive: 0.166
CC(C)CCCC(C)N (configuration not stated) | inactive: -17
O=c1cc(-c2ccccc2)oc2cc(O)c(O)c(O)c12 | inactive: -0.456
CC(C)[C@@H]1CC[C@@H](C)C[C@H]1O | inactive: -0.37
NS(=O)(=O)c1cc2c(cc1Cl)N=C(CSCc1ccccc1)NS2(=O)=O | inactive: 0.505
CC(=O)OC/C=C(C)/C=C/C=C(C)/C=C/C1=C(C)CCCC1(C)C | inactive: -1.63
O=C1C(CC[S+]([O-])c2ccccc2)C(=O)N(c2ccccc2)N1c1ccccc1 (configuration not stated) | inactive: 1.47
CCC[C@H](N[C@@H](C)C(=O)N1[C@H](C(=O)O)C[C@@H]2CCCC[C@@H]21)C(=O)O | inactive: 2.34
CC(C)c1ccc2c(c1)CCC1C(C)(C(N)=O)CCCC21C (configuration not stated) | inactive: 2.23
CC(=O)Oc1c(C)cccc1C(=O)O | inactive: 1.31
N=c1ccn2c(n1)O[C@H]1[C@H](O)[C@@H](CO)O[C@H]12 | inactive: 2.81
O=C(O)c1cc(=O)c2cccc(O)c2[nH]1 | inactive: -0.147
O=c1[nH]cc(F)c(=O)[nH]1 | inactive: 2.53
CCOc1cc(NC(C)=O)ccc1C(=O)OC | inactive: 2.29
C[C@]12C=CC(=O)C=C1CC[C@@H]1[C@@H]2[C@@H](O)C[C@@]2(C)[C@H]1CC[C@]2(O)C(=O)CO | inactive: 2.67
CC(C)Cc1ccc([C@H](C)C(=O)O)cc1 | inactive: 1.4

Structure (SMILES) | ATP level
CS(=O)(=O)c1ccc([C@@H](O)[C@@H](CO)NC(=O)C(Cl)Cl)cc1 | inactive: -35.4
O=C(Nc1cc(Cl)cc(Cl)c1O)c1c(O)c(Cl)cc(Cl)c1Cl | inactive: 0.67
O=C(O)Cc1ccccc1Nc1c(Cl)cccc1Cl | active: 3.46
C[C@@H](c1ncncc1F)[C@](O)(Cn1cncn1)c1ccc(F)cc1F | inactive: 1.95
C[C@@H]1O[C@@H](Oc2c(-c3ccc(O)c(O)c3)oc3cc(O)cc(O)c3c2=O)[C@H](O)[C@H](O)[C@H]1O | inactive: -1.53
C[C@@H]1CC(=O)NN=C1c1ccc(NN=C(C#N)C#N)cc1 | inactive: 2.51
CCC(=O)O[C@H](CC(=O)O)C[N+](C)(C)C | inactive: 0.708
Cc1cc(OC(=O)c2c(C)cc(O)cc2O)cc(O)c1C(=O)O | inactive: 0.323
Cc1cc(C(C)(C)CC(C)(C)C)ccc1OCCOCC[N+](C)(C)Cc1ccccc1 | inactive: -36.6
Cc1cc(NC(=O)C2=C(O)c3ccccc3S(=O)(=O)N2C)no1 | active: 8.25
CO[C@@]1(NC(=O)C2SC(=C(C(N)=O)C(=O)O)S2)C(=O)N2C(C(=O)O)=C(CSc3nnnn3C)CS[C@@H]21 (some centres not stated) | inactive: -9.8
CN(C)CCCN1c2ccccc2CCc2ccc(Cl)cc21 | inactive: -12.2
C#C[C@]1(OC(C)=O)CC[C@H]2[C@@H]3CCC4=C[C@@H](OC(C)=O)CC[C@@H]4[C@H]3CC[C@@]21C | inactive: 2.74
C[C@@H]1CC[C@@]2(OC1)O[C@H]1C[C@H]3[C@@H]4CC[C@H]5C[C@@H](O)CC[C@]5(C)[C@H]4CC[C@]3(C)[C@H]1[C@@H]2C | inactive: -0.921
Nc1ccc(S(=O)(=O)Nc2ncccn2)cc1 | inactive: 0.509
CO[C@@]1(NC(=O)C(C(=O)O)c2ccc(O)cc2)C(=O)N2C(C(=O)O)=C(CSc3nnnn3C)CO[C@@H]21 (some centres not stated) | inactive: 2.12
O=c1c(O)c(-c2ccccc2)oc2ccccc12 | inactive: -0.872
O=C1CC[C@@H](C(=O)O)N1 | inactive: 0.0992
CO[C@H]1C[C@@H]2CC[C@@H](C)[C@@](O)(O2)C(=O)C(=O)N2CCCC[C@H]2C(=O)O[C@H]([C@H](C)C[C@@H]2CC[C@@H](O)[C@H](OC)C2)CC(=O)[C@H](C)/C=C(\C)[C@@H](O)[C@@H](OC)C(=O)[C@H](C)C[C@H](C)/C=C/C=C/C=C/1C | inactive: 2.52
COC(=O)C[C@H]1C(C)(C)[C@@H](OC(C)=O)[C@@H]2CC3=C4CC(=O)O[C@@H](c5ccoc5)[C@]4(C)CC[C@@H]3[C@@]1(C)C2=O | inactive: -0.62
CCOc1ccccc1C(N)=O | inactive: -0.358

Structure (SMILES) | ATP level
NS(=O)(=O)c1ccc(C(=O)O)cc1 | inactive: 2.29
CCN(CC)CCCC(C)Nc1c2ccc(Cl)cc2nc2ccc(OC)cc12 (configuration not stated) | inactive: -1.96
Cc1nc(C)c(Cl)c(O)c1Cl | inactive: 0.686
CCCCCCCCCCCCCCCC[N+](C)(C)CCN(Cc1ccc(OC)cc1)c1ncccn1 | inactive: -12.1
O=C(O)P(=O)(O)O | active: 3.47
CC(C)NCC(O)c1ccc(NS(C)(=O)=O)cc1 (configuration not stated) | inactive: 0.277
C#C[C@]1(O)CC[C@H]2[C@@H]3CCc4cc(OC)ccc4[C@H]3CC[C@@]21C | inactive: -7.45
CC(=O)N1CCN(c2ccc(OCC3COC(Cn4ccnc4)(c4ccc(Cl)cc4Cl)O3)cc2)CC1 (configuration not stated) | inactive: 0.543
O=c1c(-c2ccc(O)cc2)coc2cc(O)cc(O)c12 | inactive: 1.21
N[C@H](Cc1ccccc1)C(=O)O | inactive: -6.71
O=C1C=CC(=C(c2ccc(O)cc2)c2ccc(O)cc2)C=C1 | inactive: 0.861
CCCc1nc(C)c2c(O)nc(-c3cc(S(=O)(=O)N4CCN(CC)CC4)ccc3OCC)nn12 | inactive: 0.774
COc1cc2c(cc1OC)-c1cc3ccc(OC)c(OC)c3c[n+]1CC2 | inactive: -11.3 and inactive: -11.6
COC(=O)[C@H]1[C@H]2C[C@@H]3c4[nH]c5cc(OC)ccc5c4CCN3C[C@H]2C[C@@H](OC(=O)c2cc(OC)c(OC)c(OC)c2)[C@@H]1OC | inactive: -0.0557
CC(C)(CO)[C@@H](O)C(=O)NCCCO | inactive: 1.49
O=C(O[C@@H]1Cc2c(O)cc(O)cc2O[C@@H]1c1cc(O)c(O)c(O)c1)c1cc(O)c(O)c(O)c1 | inactive: 2.26
CCOC(=O)[C@H](CCc1ccccc1)N[C@@H](C)C(=O)N1[C@H](C(=O)O)C[C@H]2CCCC[C@@H]21 | inactive: 0.204
C[C@]12CC[C@@H](O)C[C@H]1CCc1ccccc12 [3alpha-HYDROXY-4,4-BISNOR-8,11,13-PODOCARPATRIENE] | inactive: 0.858
CC[C@H](CC[C@@H](C)[C@H]1CC[C@H]2[C@@H]3CC=C4C[C@@H](OC(C)=O)CC[C@]4(C)[C@H]3CC[C@]12C)C(C)C | inactive: 0.665

Reformatted: results already given

| Structure (SMILES) | ATP level |
| --- | --- |
| Oc1cccc2[nH]ccc12 | active: 3.13 |
| O=C1CCC[C@@H]2[C@H]3CCC[N+]4([O-])CCC[C@@H](CN12)[C@@H]34 (some centres not stated) | inactive: -1.46 |
| CC(=O)N[C@@H](CS)C(=O)O | inactive: 0.752 |
| CC(=O)O[C@H]1C[C@@]2(C)[C@@H](C[C@@H](O)[C@H]3[C@@]4(C)CC[C@@H](O)[C@@H](C)[C@@H]4CC[C@@]32C)/C1=C(\CCC=C(C)C)C(=O)O | inactive: 2.27 |
| COc1cccc(-c2cc(=O)c3cc(OC)ccc3o2)c1 | inactive: 1.41 |
| COc1cc(C2Oc3cc([C@H]4Oc5cc(O)cc(O)c5C(=O)[C@@H]4O)ccc3OC2CO)ccc1O (some centres not stated) | inactive: 0.166 |
| CC(C)CCCC(C)N (configuration not stated) | inactive: -17 |
| O=c1cc(-c2ccccc2)oc2cc(O)c(O)c(O)c12 | inactive: -0.456 |
| CC(C)[C@@H]1CC[C@@H](C)C[C@H]1O | inactive: -0.37 |
| NS(=O)(=O)c1cc2c(cc1Cl)N=C(CSCc1ccccc1)NS2(=O)=O | inactive: 0.505 |
| CC(=O)OC/C=C(C)/C=C/C=C(C)/C=C/C1=C(C)CCCC1(C)C | inactive: -1.63 |
| O=C1C(CC[S+]([O-])c2ccccc2)C(=O)N(c2ccccc2)N1c1ccccc1 (configuration not stated) | inactive: 1.47 |
| CCC[C@H](N[C@@H](C)C(=O)N1[C@H](C(=O)O)C[C@@H]2CCCC[C@@H]21)C(=O)O | inactive: 2.34 |
| CC(C)c1ccc2c(c1)CCC1C(C)(C(N)=O)CCCC21C (configuration not stated) | inactive: 2.23 |
| CC(=O)Oc1c(C)cccc1C(=O)O | inactive: 1.31 |
| N=c1ccn2c(n1)O[C@H]1[C@H](O)[C@@H](CO)O[C@H]12 | inactive: 2.81 |
| O=C(O)c1cc(=O)c2cccc(O)c2[nH]1 | inactive: -0.147 |

Source: the supplement of paper PMC6289059
